These are yes or no findings as the source states them, for the method shown. In cells and extracts the contact can be indirect. Where a sequence is shown, tags or fusion partners need not be part of it.
Target: T1, FLAG-cyclin F (pCMV-FLAG-cyclin F) (human) (UniProt P41002)
T1 sequence: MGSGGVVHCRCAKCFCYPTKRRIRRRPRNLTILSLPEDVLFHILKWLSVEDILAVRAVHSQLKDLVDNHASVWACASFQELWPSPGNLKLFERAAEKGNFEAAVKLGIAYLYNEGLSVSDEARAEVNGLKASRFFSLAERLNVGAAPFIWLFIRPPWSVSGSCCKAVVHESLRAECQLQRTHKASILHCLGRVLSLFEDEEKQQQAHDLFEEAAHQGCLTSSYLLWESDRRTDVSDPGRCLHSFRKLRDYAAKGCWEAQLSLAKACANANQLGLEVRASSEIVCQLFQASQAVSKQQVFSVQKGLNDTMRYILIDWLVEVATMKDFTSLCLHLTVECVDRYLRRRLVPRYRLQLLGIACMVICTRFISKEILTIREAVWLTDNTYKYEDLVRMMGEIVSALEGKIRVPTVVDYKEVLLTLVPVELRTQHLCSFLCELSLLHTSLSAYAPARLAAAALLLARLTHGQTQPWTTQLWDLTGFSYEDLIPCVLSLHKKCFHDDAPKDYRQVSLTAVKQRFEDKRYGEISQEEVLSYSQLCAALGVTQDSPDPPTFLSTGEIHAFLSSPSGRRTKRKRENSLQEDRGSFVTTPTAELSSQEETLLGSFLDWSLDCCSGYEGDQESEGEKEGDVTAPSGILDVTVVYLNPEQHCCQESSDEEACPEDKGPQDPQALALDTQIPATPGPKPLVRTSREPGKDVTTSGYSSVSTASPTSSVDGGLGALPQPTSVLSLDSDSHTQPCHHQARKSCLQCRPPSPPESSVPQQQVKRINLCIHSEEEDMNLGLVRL
Assay: co-IP; HEK293T cells co-transfected with cyclin F and wild-type or CY Mut Vif constructs, lysates 48 h post-transfection; IP with cyclin F or Vif antibody, protein A- and G-agarose beads, immunoblot

With “myc-Vif (RKL/AAA) point mutant, CY Mut Vif (HIV-1 NL4-3)” the binding was “no binding”.

From publication PMC5392680
